Laboratory results published in the supplement of paper PMC10849652.
The other results are listed elsewhere or left out.

Amino acid sequences for entries named in this document (tags omitted). A change or cut given only in a name is not applied to a line headed by its entry.
UniProt P08397: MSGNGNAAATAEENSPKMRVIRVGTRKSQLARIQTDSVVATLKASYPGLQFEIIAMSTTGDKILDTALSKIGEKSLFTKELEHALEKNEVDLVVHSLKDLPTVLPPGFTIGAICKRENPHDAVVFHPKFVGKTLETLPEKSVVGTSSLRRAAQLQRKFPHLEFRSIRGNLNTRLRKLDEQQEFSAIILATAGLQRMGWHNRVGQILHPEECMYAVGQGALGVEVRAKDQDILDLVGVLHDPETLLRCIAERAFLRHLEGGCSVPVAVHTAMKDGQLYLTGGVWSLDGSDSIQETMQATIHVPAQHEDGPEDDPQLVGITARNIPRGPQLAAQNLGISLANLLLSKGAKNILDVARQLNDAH
UniProt P42694: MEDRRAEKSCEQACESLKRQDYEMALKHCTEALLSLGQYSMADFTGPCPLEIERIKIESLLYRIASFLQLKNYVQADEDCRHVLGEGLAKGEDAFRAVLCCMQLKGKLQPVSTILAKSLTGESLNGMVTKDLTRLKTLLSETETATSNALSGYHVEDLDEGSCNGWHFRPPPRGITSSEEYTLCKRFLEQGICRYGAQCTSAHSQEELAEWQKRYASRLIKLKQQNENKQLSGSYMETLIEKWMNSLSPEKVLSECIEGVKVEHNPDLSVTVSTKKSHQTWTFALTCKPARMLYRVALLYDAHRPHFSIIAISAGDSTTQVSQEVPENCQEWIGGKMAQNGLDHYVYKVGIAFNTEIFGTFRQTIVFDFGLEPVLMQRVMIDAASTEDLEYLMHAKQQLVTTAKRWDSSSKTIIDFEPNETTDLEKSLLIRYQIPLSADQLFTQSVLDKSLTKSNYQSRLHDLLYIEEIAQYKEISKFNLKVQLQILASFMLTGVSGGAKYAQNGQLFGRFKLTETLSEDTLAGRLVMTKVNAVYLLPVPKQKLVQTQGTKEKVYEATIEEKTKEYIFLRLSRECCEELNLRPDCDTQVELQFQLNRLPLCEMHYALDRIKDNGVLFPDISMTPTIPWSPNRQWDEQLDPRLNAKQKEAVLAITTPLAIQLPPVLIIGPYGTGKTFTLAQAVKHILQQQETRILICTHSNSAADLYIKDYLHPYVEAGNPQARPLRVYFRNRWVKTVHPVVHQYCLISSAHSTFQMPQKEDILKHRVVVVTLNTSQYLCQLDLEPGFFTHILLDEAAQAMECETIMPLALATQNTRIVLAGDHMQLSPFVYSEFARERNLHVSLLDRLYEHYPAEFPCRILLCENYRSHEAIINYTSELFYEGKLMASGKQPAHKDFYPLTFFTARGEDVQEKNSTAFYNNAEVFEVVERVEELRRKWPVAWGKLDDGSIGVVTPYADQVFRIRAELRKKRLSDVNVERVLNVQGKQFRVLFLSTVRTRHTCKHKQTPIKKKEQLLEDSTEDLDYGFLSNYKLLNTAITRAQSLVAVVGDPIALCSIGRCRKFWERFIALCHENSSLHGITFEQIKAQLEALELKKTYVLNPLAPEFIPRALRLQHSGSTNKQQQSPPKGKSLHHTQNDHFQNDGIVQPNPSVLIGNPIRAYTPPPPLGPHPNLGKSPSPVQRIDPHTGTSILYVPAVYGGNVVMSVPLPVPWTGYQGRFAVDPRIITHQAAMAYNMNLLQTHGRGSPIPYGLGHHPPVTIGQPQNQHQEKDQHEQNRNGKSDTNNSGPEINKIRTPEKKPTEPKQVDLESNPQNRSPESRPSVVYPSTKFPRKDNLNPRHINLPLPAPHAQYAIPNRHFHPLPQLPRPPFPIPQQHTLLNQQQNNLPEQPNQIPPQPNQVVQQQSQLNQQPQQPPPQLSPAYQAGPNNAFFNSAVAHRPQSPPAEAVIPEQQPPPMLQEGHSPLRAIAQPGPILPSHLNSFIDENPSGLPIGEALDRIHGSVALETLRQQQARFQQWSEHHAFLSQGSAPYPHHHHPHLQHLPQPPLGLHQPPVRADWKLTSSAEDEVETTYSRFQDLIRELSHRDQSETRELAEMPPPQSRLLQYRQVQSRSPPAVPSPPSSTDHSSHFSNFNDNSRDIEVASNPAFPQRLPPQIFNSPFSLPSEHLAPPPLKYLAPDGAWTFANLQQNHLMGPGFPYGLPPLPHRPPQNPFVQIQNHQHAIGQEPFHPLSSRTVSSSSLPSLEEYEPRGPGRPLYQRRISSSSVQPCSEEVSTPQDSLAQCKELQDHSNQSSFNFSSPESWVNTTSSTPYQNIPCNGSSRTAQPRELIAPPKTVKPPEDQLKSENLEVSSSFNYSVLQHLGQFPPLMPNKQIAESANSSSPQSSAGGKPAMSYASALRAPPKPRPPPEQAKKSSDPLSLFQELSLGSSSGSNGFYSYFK
UniProt Q0VDF9: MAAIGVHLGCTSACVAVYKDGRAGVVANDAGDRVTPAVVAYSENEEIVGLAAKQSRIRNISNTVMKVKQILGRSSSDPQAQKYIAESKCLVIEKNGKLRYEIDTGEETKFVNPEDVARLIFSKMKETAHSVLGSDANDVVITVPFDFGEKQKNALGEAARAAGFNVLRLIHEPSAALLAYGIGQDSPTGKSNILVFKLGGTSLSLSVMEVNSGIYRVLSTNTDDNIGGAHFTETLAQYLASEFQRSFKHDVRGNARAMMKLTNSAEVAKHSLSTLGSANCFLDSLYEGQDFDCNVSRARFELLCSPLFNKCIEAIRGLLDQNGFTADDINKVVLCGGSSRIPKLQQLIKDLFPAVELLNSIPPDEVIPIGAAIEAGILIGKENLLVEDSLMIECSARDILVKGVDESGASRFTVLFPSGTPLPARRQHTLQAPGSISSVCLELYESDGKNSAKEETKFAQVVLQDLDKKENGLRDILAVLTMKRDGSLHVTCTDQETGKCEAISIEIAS
UniProt Q6AI08: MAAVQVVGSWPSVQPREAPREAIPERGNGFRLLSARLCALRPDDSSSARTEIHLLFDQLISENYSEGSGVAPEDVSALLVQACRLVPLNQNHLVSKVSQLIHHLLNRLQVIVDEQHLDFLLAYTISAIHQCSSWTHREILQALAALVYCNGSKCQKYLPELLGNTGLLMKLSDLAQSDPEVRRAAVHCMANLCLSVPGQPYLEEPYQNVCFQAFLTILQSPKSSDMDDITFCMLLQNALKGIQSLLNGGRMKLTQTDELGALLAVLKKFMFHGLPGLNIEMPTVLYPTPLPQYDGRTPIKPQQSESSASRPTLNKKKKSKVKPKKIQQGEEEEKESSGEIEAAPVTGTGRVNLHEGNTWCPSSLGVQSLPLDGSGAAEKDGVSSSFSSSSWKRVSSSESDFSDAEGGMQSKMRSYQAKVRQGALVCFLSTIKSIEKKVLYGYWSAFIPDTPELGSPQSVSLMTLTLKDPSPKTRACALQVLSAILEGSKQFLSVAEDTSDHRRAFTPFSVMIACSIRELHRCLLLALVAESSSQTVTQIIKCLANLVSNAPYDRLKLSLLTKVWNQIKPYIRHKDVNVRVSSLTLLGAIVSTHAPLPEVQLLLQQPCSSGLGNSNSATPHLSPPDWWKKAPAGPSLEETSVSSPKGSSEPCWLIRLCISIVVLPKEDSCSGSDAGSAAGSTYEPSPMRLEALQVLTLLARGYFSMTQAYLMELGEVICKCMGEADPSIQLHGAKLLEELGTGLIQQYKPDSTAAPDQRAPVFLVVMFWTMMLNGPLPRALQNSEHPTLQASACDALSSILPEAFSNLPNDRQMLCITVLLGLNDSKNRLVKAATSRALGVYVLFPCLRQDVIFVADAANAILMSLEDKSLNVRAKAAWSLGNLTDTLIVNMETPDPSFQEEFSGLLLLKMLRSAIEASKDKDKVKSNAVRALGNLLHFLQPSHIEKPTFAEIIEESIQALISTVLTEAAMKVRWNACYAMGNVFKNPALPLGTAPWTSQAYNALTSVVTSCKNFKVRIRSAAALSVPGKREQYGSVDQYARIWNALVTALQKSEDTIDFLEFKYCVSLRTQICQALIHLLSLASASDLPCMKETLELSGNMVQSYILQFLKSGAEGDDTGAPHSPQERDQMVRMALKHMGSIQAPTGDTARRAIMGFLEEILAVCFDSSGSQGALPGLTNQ
UniProt O43390: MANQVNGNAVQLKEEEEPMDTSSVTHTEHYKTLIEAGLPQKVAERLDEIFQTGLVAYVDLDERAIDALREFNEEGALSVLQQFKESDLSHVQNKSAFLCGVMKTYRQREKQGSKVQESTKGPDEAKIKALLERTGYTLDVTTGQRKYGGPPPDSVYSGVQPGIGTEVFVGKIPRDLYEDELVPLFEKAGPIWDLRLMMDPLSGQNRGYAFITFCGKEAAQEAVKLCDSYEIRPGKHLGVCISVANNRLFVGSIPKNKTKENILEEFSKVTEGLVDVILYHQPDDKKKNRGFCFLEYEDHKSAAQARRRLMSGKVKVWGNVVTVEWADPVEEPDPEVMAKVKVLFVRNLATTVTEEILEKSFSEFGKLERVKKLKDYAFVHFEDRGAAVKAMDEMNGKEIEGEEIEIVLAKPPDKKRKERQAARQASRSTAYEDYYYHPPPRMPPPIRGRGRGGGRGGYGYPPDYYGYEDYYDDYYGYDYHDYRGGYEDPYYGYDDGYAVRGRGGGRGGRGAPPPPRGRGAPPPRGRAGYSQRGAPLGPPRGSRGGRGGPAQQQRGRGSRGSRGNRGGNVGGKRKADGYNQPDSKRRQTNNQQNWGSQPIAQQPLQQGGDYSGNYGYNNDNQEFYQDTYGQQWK

What was measured:
Assay in all cases: log2 fold change, soluble protein after heating vs DMSO (PISA); higher = thermal stabilisation; K562 lysate, 10 uM; active = over 0.2 and 3.5 SD of the protein, either way, in both replicates (recomputed)
lapatinib = compound: CS(=O)(=O)CCNCc1ccc(-c2ccc3ncnc(Nc4ccc(OCc5cccc(F)c5)c(Cl)c4)c3c2)o1 [lapatinib]
Procedure, shortened: (§1)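 The values are log-two fold changes in thermal stability compared with solvent controls and come from duplicates. They were obtained by TMTpro 16plex LC-MS/MS, with channel sums equalised, on the supernatant after 21,000xg for 90 min. That supernatant came from crude K562 extract at 1 mg/mL protein treated with 10 μM compound for 30 min, heated for 3 min across 48°C-58°C, pooled and brought to 0.5% NP-40 at 4°C.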

pictilisib = compound: CS(=O)(=O)N1CCN(Cc2cc3nc(-c4cccc5[nH]ncc45)nc(N4CCOCC4)c3s2)CC1 [pictilisib]
Procedure, shortened: as §1

crizotinib = compound: C[C@@H](Oc1cc(-c2cnn(C3CCNCC3)c2)cnc1N)c1c(Cl)ccc(F)c1Cl [crizotinib]
Procedure, shortened: as §1

[1] = compound: C[C@H](C1=CC=C(C=C1)C(=O)NC2=C3C=CNC3=NC=C2)N
Procedure, shortened: as §1

duvelisib = compound: C[C@H](Nc1ncnc2nc[nH]c12)c1cc2cccc(Cl)c2c(=O)n1-c1ccccc1 [duvelisib]
Procedure, shortened: as §1

gandotinib = compound: Cc1cc(Nc2cc(CN3CCOCC3)c3nc(C)c(Cc4ccc(Cl)cc4F)n3n2)n[nH]1 [gandotinib]
Procedure, shortened: as §1

tozasertib = compound: Cc1cc(Nc2cc(N3CCN(C)CC3)nc(Sc3ccc(NC(=O)C4CC4)cc3)n2)n[nH]1 [tozasertib]
Procedure, shortened: as §1

doramapimod = compound: Cc1ccc(-n2nc(C(C)(C)C)cc2NC(=O)Nc2ccc(OCCN3CCOCC3)c3ccccc23)cc1 [doramapimod]
Procedure, shortened: as §1

bafetinib = compound: Cc1ccc(NC(=O)c2ccc(CN3CC[C@H](N(C)C)C3)c(C(F)(F)F)c2)cc1Nc1nccc(-c2cncnc2)n1 [bafetinib]
Procedure, shortened: as §1

[2] = compound: Cc1cccc(CC(=O)N2CCc3c2ccc(-c2cn(C)c4ncnc(N)c24)c3F)n1
Procedure, shortened: as §1

nilotinib = compound: Cc1cn(-c2cc(NC(=O)c3ccc(C)c(Nc4nccc(-c5cccnc5)n4)c3)cc(C(F)(F)F)c2)cn1 [nilotinib]
Procedure, shortened: as §1

[3] = compound: Cc1nc(Nc2n[nH]c3c2CN(C(=O)N[C@H](CN(C)C)c2ccccc2)C3(C)C)c2sccc2n1
Procedure, shortened: as §1

dasatinib = compound: Cc1nc(Nc2ncc(C(=O)Nc3c(C)cccc3Cl)s2)cc(N2CCN(CCO)CC2)n1 [dasatinib]
Procedure, shortened: as §1

[4] = compound: Cc1ncc(-c2ccnc(Nc3ccc(S(C)(=O)=O)cc3)n2)n1C(C)C
Procedure, shortened: as §1

[5] = compound: Cn1cc(-c2ccc3c(c2)CCN3C(=O)Cc2cccc(C(F)(F)F)c2)c2c(N)ncnc21
Procedure, shortened: as §1

quisinostat = compound: Cn1cc(CNCC2CCN(c3ncc(C(=O)NO)cn3)CC2)c2ccccc21 [quisinostat]
Procedure, shortened: as §1

tipifarnib = compound: Cn1cncc1[C@@](N)(c1ccc(Cl)cc1)c1ccc2c(c1)c(-c1cccc(Cl)c1)cc(=O)n2C [tipifarnib]
Procedure, shortened: as §1

[6] = compound: NC(=O)Nc1cc(-c2cccc(F)c2)sc1C(=O)N[C@H]1CCCNC1
Procedure, shortened: as §1

[7] = compound: NC(=O)c1cnc(N[C@@H]2CCCC[C@@H]2N)nc1Nc1cccc(-n2nccn2)c1
Procedure, shortened: as §1

[8] = compound: NC1(c2ccc(-c3nc4ccn5c(=O)[nH]nc5c4cc3-c3ccccc3)cc2)CCC1
Procedure, shortened: as §1

Measured: log2 fold change

HMBS (UniProt P08397)
inactive: lapatinib 0.013 | pictilisib 0.007 | crizotinib 0.03 | [1] 0.042 | duvelisib 0.007 | gandotinib -0.005 | tozasertib -0.018 | doramapimod -0.038 | bafetinib 0.021 | [2] -0.082 | nilotinib 0.017 | [3] 0.002 | dasatinib 0.035 | [4] 0.013 | [5] 0.011 | quisinostat 0.059 | tipifarnib 0.01 | [6] -0.028 | [7] -0.014 | [8] 0.011

HELZ (UniProt P42694)
inactive: lapatinib -0.018 | pictilisib -0.085 | crizotinib -0.001 | [1] -0.058 | duvelisib -0.002 | gandotinib 0.051 | tozasertib 0.036 | doramapimod -0.168 | bafetinib -0.1 | [2] 0.092 | nilotinib -0.006 | [3] 0.01 | dasatinib -0.043 | [4] -0.015 | [5] 0.079 | quisinostat -0.045 | tipifarnib -0.028 | [6] 0.065 | [7] -0.11 | [8] -0.018

HSPA14 (UniProt Q0VDF9)
inactive: lapatinib -0.016 | pictilisib 0.023 | crizotinib -0.02 | [1] -0.038 | duvelisib 0.007 | gandotinib -0.039 | tozasertib 0.018 | doramapimod 0.003 | bafetinib -0.026 | [2] 0.037 | nilotinib -0.032 | [3] -0.001 | dasatinib -0.018 | [4] 0.009 | [5] 0.034 | quisinostat -0.026 | tipifarnib 0.021 | [6] 0.037 | [7] 0.001 | [8] -0.025

HEATR6 (UniProt Q6AI08)
inactive: lapatinib -0.014 | pictilisib -0.033 | crizotinib -0.112 | [1] -0.037 | duvelisib 0.084 | gandotinib 0.003 | tozasertib -0.003 | doramapimod -0.011 | bafetinib 0.054 | [2] 0.045 | nilotinib -0.085 | [3] 0.022 | dasatinib -0.019 | [4] 0.022 | [5] 0 | quisinostat -0.008 | tipifarnib -0.06 | [6] 0.055 | [7] 0.041 | [8] 0.026

HNRNPR isoform 2 (UniProt O43390)
inactive: lapatinib 0.003 | pictilisib -0.001 | crizotinib -0.014 | [1] 0.008 | duvelisib 0.001 | gandotinib -0.048 | tozasertib 0.018 | doramapimod 0.001 | bafetinib 0.012 | [2] -0.021 | nilotinib -0.031 | [3] 0.002 | dasatinib -0.003 | [4] -0.017 | [5] -0.002 | quisinostat 0.002 | tipifarnib 0.02 | [6] -0.028 | [7] 0.011 | [8] -0.006
